Measured values published in the supplement of paper PMC4635364.
Structures can show the parent of a compound that is named as a salt. Some of the results follow. This data set is noisy: repeats of one test often differ as much as different tests do.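 Human fetal ventral-midbrain neural progenitor line ReNCell VM, differentiated without mitogens. Images stained for doublecortin (early neurons) or tyrosine hydroxylase (dopaminergic neurons) were scored by blinded raters against untreated wells (0 = no change). Repeats and both raters were averaged, and compounds averaging 2 or higher were picked as hits for retesting.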

Tested on: ReNCell VM
Experiment: neuronal differentiation score (DCX+ cell fraction vs untreated, manual image score) (score (-3 to 3)); higher = more neuronal differentiation
Conditions: library: LOPAC; 2 uM; 2 weeks

Structure (SMILES)	neuronal differentiation score
C=C(C)[C@@H]1[C@H]2OC(=O)[C@@H]1[C@]1(O)C[C@H]3OC34C(=O)O[C@H]2[C@@]41C.CC(C)(O)[C@@H]1[C@H]2OC(=O)[C@@H]1[C@]1(O)C[C@H]3OC34C(=O)O[C@H]2[C@@]41C (stereo not given in full) [Picrotoxin]	inactive: 0
CCCN1CCC[C@H](c2cccc(O)c2)C1 [R(+)-3PPP hydrochloride]	inactive: 0
C#CCOC(=O)C1=CCCN(C)C1 [Arecaidine propargyl ester hydrobromide]	inactive: 0
COC(=O)[C@@H](N)CCCNC(=N)N[N+](=O)[O-] [NG-Nitro-L-arginine methyl ester hydrochloride]	inactive: 0
O=P1(N(CCCl)CCCl)NCCCO1 (stereo not given) [Cyclophosphamide monohydrate]	inactive: 0
C[N+]1(C)CCN(c2ccccc2)CC1 [1,1-Dimethyl-4-phenyl-piperazinium iodide]	inactive: -1
NC(=O)CN1CC(O)CC1=O (stereo not given) [Oxiracetam]	inactive: 0
O=[N+]([O-])c1ccc(O[C@@H]2O[C@H](CO)[C@@H](O)[C@H](O)[C@H]2F)c([N+](=O)[O-])c1 [2,4-Dinitrophenyl 2-fluoro-2-deoxy-beta-D-glucopyranoside]	inactive: 0
C[C@@H]1O[C@@H](O[C@H]2C[C@@H](O)[C@]3(CO)[C@H]4[C@H](O)C[C@]5(C)[C@@H]([C@@H]6COC(=O)C6)CC[C@]5(O)[C@@H]4CC[C@]3(O)C2)[C@H](O)[C@H](O)[C@H]1O [Dihydroouabain]	inactive: 0
CN1CCc2cc(O)cc3c2[C@H]1Cc1ccc(O)c(O)c1-3 [R(-)-2,10,11-Trihydroxyaporphine hybrobromide]	inactive: -1
CN1CCc2cccc(Cl)c2CC1	inactive: 0
CC12CCC3C(CCC4=C(O)C(=O)CCC43C)C1CCC2=O (stereo not given) [4-Androsten-4-ol-3,17-dione]	inactive: 1
COc1ccc2c(c1OC)C(=O)OC2C1c2cc3c(cc2CCN1C)OCO3 (single isomer, unassigned; (+)) [(+)-Hydrastine]	inactive: 0

Same assay, conditions: library: Spectrum; 2 uM; 2 weeks

Structure (SMILES)	neuronal differentiation score
N#C/C(=C\c1ccc(O)cc1)C(=O)O [alpha-CYANO-4-HYDROXYCINNAMIC ACID]	inactive: 0
CNC(=O)Oc1ccc2c(c1)[C@]1(C)CCN(C)[C@@H]1N2C	inactive: 0
CS(=N)(=O)CC[C@H](N)C(=O)O (stereo not given in full)	inactive: 0
COC1=CC(=O)O[C@@H](/C=C/c2ccccc2)C1	inactive: 0
CC[C@H]1CN2CC[C@H]1C[C@@H]2[C@@H](O)c1ccnc2ccc(OC)cc12	inactive: 0
C=C[C@H]1CN2CC[C@H]1C[C@H]2[C@H](O)c1ccnc2ccccc12	inactive: 0
C=CCN=C=S	inactive: 0
CN1C[C@H](CNC(=O)OCc2ccccc2)C[C@@H]2c3cccc4c3c(cn4C)C[C@H]21	inactive: 0
CC(N)C(O)c1ccccc1 (stereo not given)	inactive: 0
NP(N)(=O)NC(=O)c1ccc(F)cc1	inactive: 0
COc1cccc(C=O)c1OC	inactive: 0
C=CC[C@]1(O)CC[C@H]2[C@@H]3CCC4=CC(=O)CCC4=C3C=C[C@@]21C	inactive: 0
CC(=O)O[C@H]1C[C@@H]2CC[C@@H]3[C@H](CC[C@@]4(C)[C@H]3C[C@H]([N+]3(C)CCCCC3)[C@@H]4OC(C)=O)[C@@]2(C)C[C@@H]1[N+]1(C)CCCCC1	inactive: 0
CN1[C@@H]2CC[C@H]1C[C@@H](OC(=O)C(CO)c1ccccc1)C2 (stereo not given in full)	inactive: 0
Cc1ccc(-c2nc3ccc(C)cn3c2CC(=O)N(C)C)cc1	inactive: 0
O=P1(N(CCCl)CCCl)NCCCO1 (stereo not given)	inactive: 1
NNCc1ccccc1	inactive: 0
CC(=O)[O][Hg][c]1ccccc1	inactive: 0
C[N+]1(C)[C@@H]2C[C@@H](OC(=O)[C@H](CO)c3ccccc3)C[C@H]1[C@@H]1O[C@@H]12	inactive: -1

Four consecutive entries out of the list so far, quoted:
Structure (SMILES)	neuronal differentiation score
C=CCN=C=S	inactive: 0
CN1C[C@H](CNC(=O)OCc2ccccc2)C[C@@H]2c3cccc4c3c(cn4C)C[C@H]21	inactive: 0
CC(N)C(O)c1ccccc1 (stereo not given)	inactive: 0
NP(N)(=O)NC(=O)c1ccc(F)cc1	inactive: 0

Tested on: ReNCell VM
Experiment: dopaminergic neuron differentiation score (TH+ cell fraction vs untreated, manual image score) (score (0 to 3)); higher = more TH+ dopaminergic neuron differentiation
Conditions: library: LOPAC; 2 uM; 4 weeks; BDNF 10 ng/ml + GDNF 10 ng/ml

Structure (SMILES)	dopaminergic neuron differentiation score
C=C(C)[C@@H]1[C@H]2OC(=O)[C@@H]1[C@]1(O)C[C@H]3OC34C(=O)O[C@H]2[C@@]41C.CC(C)(O)[C@@H]1[C@H]2OC(=O)[C@@H]1[C@]1(O)C[C@H]3OC34C(=O)O[C@H]2[C@@]41C (stereo not given in full) [Picrotoxin]	inactive: 0
CCCN1CCC[C@H](c2cccc(O)c2)C1 [R(+)-3PPP hydrochloride]	inactive: 0
C#CCOC(=O)C1=CCCN(C)C1 [Arecaidine propargyl ester hydrobromide]	inactive: 0
COC(=O)[C@@H](N)CCCNC(=N)N[N+](=O)[O-] [NG-Nitro-L-arginine methyl ester hydrochloride]	inactive: 0
O=P1(N(CCCl)CCCl)NCCCO1 (stereo not given) [Cyclophosphamide monohydrate]	inactive: 0
C[N+]1(C)CCN(c2ccccc2)CC1 [1,1-Dimethyl-4-phenyl-piperazinium iodide]	inactive: 0
NC(=O)CN1CC(O)CC1=O (stereo not given) [Oxiracetam]	inactive: 0
O=[N+]([O-])c1ccc(O[C@@H]2O[C@H](CO)[C@@H](O)[C@H](O)[C@H]2F)c([N+](=O)[O-])c1 [2,4-Dinitrophenyl 2-fluoro-2-deoxy-beta-D-glucopyranoside]	inactive: 0
C[C@@H]1O[C@@H](O[C@H]2C[C@@H](O)[C@]3(CO)[C@H]4[C@H](O)C[C@]5(C)[C@@H]([C@@H]6COC(=O)C6)CC[C@]5(O)[C@@H]4CC[C@]3(O)C2)[C@H](O)[C@H](O)[C@H]1O [Dihydroouabain]	inactive: 0
CN1CCc2cc(O)cc3c2[C@H]1Cc1ccc(O)c(O)c1-3 [R(-)-2,10,11-Trihydroxyaporphine hybrobromide]	inactive: 0
CN1CCc2cccc(Cl)c2CC1	inactive: 0
CC12CCC3C(CCC4=C(O)C(=O)CCC43C)C1CCC2=O (stereo not given) [4-Androsten-4-ol-3,17-dione]	inactive: 0
COc1ccc2c(c1OC)C(=O)OC2C1c2cc3c(cc2CCN1C)OCO3 (single isomer, unassigned; (+)) [(+)-Hydrastine]	inactive: 0
